Results taken from patent US20120138147A1, “PHOTOELECTRIC CONVERSION ELEMENT, MANUFACTURING METHOD OF THE SAME AND ELECTRONIC EQUIPMENT” (Sony Corporation, priority 2010, published 2012).

Tests used:
[1] = Photoelectric conversion efficiency and internal resistance of dye sensitized photoelectric conversion element, additive in electrolytic solution (Z907 dye); details: additive in MPN electrolytic solution
[2] = Dependence of the effects of the additives on the solvent species of the electrolytic solution
[3] = solvent AN (acetonitrile), cited from earlier work; for Eff (photoelectric conversion efficiency): molecular weight 41.05
[4] = Photoelectric conversion efficiency and internal resistance of dye sensitized photoelectric conversion element, additive in electrolytic solution (Z991 dye)
[5] = solvent AN/VN mixture, apparent molecular weight 47.36
[6] = solvent MAN, molecular weight 71.08
[7] = solvent MPN, molecular weight 85.1

| Compound | Eff (photoelectric conversion efficiency) [1] [%] | Rs (internal resistance) [1] | also measured |
| --- | --- | --- | --- |
| COc1ccccn1 [2-MeO—Py] | 7.4 | 34.3 Ω | – |
| Brc1cccnc1 [3-Br—Py] | 7.3 | 36.9 Ω | – |
| COC(=O)c1cccnc1 [3-COOMe—Py] | 7.2 | 39.5 Ω | – |
| COc1cccnc1 [3-MeO—Py] | 7.8 | 34.0 Ω | – |
| N#Cc1ccncc1 [4-CN—Py] | 6.7 | 41.3 Ω | – |
| CCc1ccncc1 [4-Et—Py, 4-ethylpyridine] | 8.2 | 32.1 Ω | ΔEff=Eff(4-Et-Py)−Eff(TBP) ([2]; solvent AN/VN mixture): 0.03; Eff (photoelectric conversion efficiency) [2, 5]: 8.72; ΔEff=Eff(4-Et-Py)−Eff(TBP) ([2]; solvent MAN): 0.09; Eff (photoelectric conversion efficiency) [2, 6]: 8.05; ΔEff=Eff(4-Et-Py)−Eff(TBP) ([2]; solvent MPN): 0.36; Eff (photoelectric conversion efficiency) [2, 7]: 8.22; Eff (photoelectric conversion efficiency) [3]: 3.4; ΔEff=Eff(4-Et-Py)−Eff(TBP) [3]: −4 |
| CNc1ccncc1 [4-MeNH—Py] | 6.2 | 45.6 Ω | – |
| COc1ccncc1 [4-MeO—py, 4-methoxypyridine] | 8.4 | 31.0 Ω | Eff (photoelectric conversion efficiency) [4]: 9.2%; Rs (internal resistance) [4]: 26.1 Ω |
| Nc1ccncc1 [4-NH2—Py] | 7.1 | 41.7 Ω | – |
| Cc1ccncc1 [4-pic] | 7.9 | 34.3 Ω | – |
| Cc1ccnc(C)c1 [24-Lu, 2,4-lutidine] | 8.3 | 29.9 Ω | – |
| Cc1ccc(C)nc1 [25-Lu, 2,5-lutidine] | 8.3 | 30.5 Ω | Eff (photoelectric conversion efficiency) [4]: 9.2%; Rs (internal resistance) [4]: 27.1 Ω |
| Cc1cccc(C)n1 [26-Lu, 2,6-lutidine] | 8.3 | 30.6 Ω | Eff (photoelectric conversion efficiency) [4]: 9.4%; Rs (internal resistance) [4]: 24.8 Ω |
| Cc1ccncc1C [34-Lu, 3,4-lutidine] | 8.0 | 31.9 Ω | – |
| Cc1cncc(C)c1 [35-Lu, 3,5-lutidine] | 7.9 | 32.0 Ω | – |
| c1ccc2c(c1)ccc1ncccc12 [56-benzoquinoline] | 7.6 | 33.3 Ω | – |
| Cn1ccnc1 [Mlm, N-methylimidazole] | 8.0 | 33.0 Ω | – |
| Cn1cnc2ccccc21 [NMB] | 7.9 | 35.8 Ω | – |
| c1ccncc1 [Py] | – | 33.6 Ω | – |
| CC(C)(C)c1ccncc1 [TBP, 4-tert-butylpyridine] | 7.9 | 33.8 Ω | Eff (photoelectric conversion efficiency) [4]: 8.6%; Rs (internal resistance) [4]: 34.2 Ω; Eff (photoelectric conversion efficiency) [2, 5]: 8.69; Eff (photoelectric conversion efficiency) [2, 6]: 7.96; Eff (photoelectric conversion efficiency) [2, 7]: 7.86; Eff (photoelectric conversion efficiency) [3]: 7.4 |
| c1ccc2nc3ccccc3cc2c1 [acridine] | 7.3 | 31.3 Ω | – |
| c1ccc(-c2ccccn2)nc1 [bpy] | 7.4 | 37.2 Ω | – |
| c1ccc2cnccc2c1 [isoquinoline] | 7.7 | 36.1 Ω | – |
| c1cnccn1 [pyrazine] | 6.8 | 40.4 Ω | – |
| c1ccnnc1 [pyridazine] | 6.5 | 32.0 Ω | – |
| c1cncnc1 [pyrimidine] | – | 35.5 Ω | – |
| c1ccc2ncccc2c1 [quinoline] | 7.6 | 32.9 Ω | – |
| c1cscn1 [thiazole] | – | 32.5 Ω | – |
| Me-pyrazole | 7.5 | 32.7 Ω | – |

Read-outs that look alike come from different tables or passages of the source.
